Reference: publication PMC3022035
No constants are given. Whether binding was seen depends on the method and setting. Binding seen in cells or lysates may run through a third protein. Binding calls can cover weak binding; strength is not graded here.

Target: GST-p38 fusion protein
Assay: pull-down; hTCEpi cell lysates (untreated or TNF-α 10 ng/ml) incubated at 4°C for 1 h with GST-p38 fusion protein, then glutathione-agarose at 4°C overnight; egg lysis buffer (50 mM Tris pH 7.5, 0.1% NP40, 120 mM NaCl); Western blot; only the target purified

B1: IκB kinase β (IKKβ), endogenous in hTCEpi cells (enzyme, UniProt O14920 1-756)
chain: MSWSPSLTTQTCGAWEMKERLGTGGFGNVIRWHNQETGEQIAIKQCRQELSPRNRERWCLEIQIMRRLTHPNVVAARDVPEGMQNLAPNDLPLLAMEYCQGGDLRKYLNQFENCCGLREGAILTLLSDIASALRYLHENRIIHRDLKPENIVLQQGEQRLIHKIIDLGYAKELDQGSLCTSFVGTLQYLAPELLEQQKYTVTVDYWSFGTLAFECITGFRPFLPNWQPVQWHSKVRQKSEVDIVVSEDLNGTVKFSSSLPYPNNLNSVLAERLEKWLQLMLMWHPRQRGTDPTYGPNGCFKALDDILNLKLVHILNMVTGTIHTYPVTEDESLQSLKARIQQDTGIPEEDQELLQEAGLALIPDKPATQCISDGKLNEGHTLDMDLVFLFDNSKITYETQISPRPQPESVSCILQEPKRNLAFFQLRKVWGQVWHSIQTLKEDCNRLQQGQRAAMMNLLRNNSCLSKMKNSMASMSQQLKAKLDFFKTSIQIDLEKYSEQTEFGITSDKLLLAWREMEQAVELCGRENEVKLLVERMMALQTDIVDLQRSPMGRKQGGTLDDLEEQARELYRRLREKPRDQRTEGDSQEMVRLLLQAIQSFEKKVRVIYTQLSKTVVCKQKALELLPKVEEVVSLMNEDEKTVVRLQEKRQKELWNLLKIACSKVRGPVSGSPDSMNASRLSQPGQLMSQPSTASNSLPEPAKKSEELVAEAHNLCTLLENAIQDTVREQDQSFTALDWSWLQTEEEEHSCLEQAS
Q: B1 was tested. Which binding did it give?
A: binds
